Reference: patent US20200362047A1
These are yes or no findings as the source states them, for the method shown. Some binding calls cover weakened binding; strength is not graded here.

The chains behind the UniProt entries cited, without tags or fusion partners. Where a name states a change or a piece, a line headed by the entry shows the natural chain unless it says otherwise.
UniProt Q07011: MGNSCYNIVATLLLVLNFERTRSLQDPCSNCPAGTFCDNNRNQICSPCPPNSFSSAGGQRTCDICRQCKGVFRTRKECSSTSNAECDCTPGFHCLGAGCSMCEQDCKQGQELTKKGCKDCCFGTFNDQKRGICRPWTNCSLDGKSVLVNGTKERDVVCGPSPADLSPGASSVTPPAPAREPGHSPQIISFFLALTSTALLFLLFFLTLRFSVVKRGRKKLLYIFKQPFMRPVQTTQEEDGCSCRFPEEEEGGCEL

Molecular target: human CD137 expressed on the surface of CHO cells (human) (UniProt Q07011)
Assay: FMAT, CHO human CD137 cells

binding: binds
B1: 4.1-6GS-1.1-6GS-VH (MSA) (bispecific antibody, not shown: small tags and cut ends)
chain: EVQLVESGGGVVQPGRSLRLSCAASGFSFSGYGMHWVRQAPGKGLEWVAYISYDGSNKYYADSVKGRFTISRDNSKNTLYLQMNSLRAEDTAVYYCAKDPAWGLRLGESSSYDFDIWGQGTMVTVSSGGGGSGGGGSGGGGSGGGGSGGGGSGGGGSEVQLVESGGGLVQPGGSLRLSCAASGFTFSSHWMTWFRQAPGKGLEWVAHIKEDGSEKYYEDSVEGRFTVSRDNAKNSVYLQMNSLRAEDTAVYYCARGGDGYSDSHFGVDVWGQGTTVTVSSGGGGSGGGGSGGGGSGGGGSGGGGSGGGGSQVQLVESGGGLVQPGGSLRLSCAASGFTFSSYAMSWVRQAPGKGLEWVATISDSGSSADYADSVKGRFTISRDNSKNTLYLQMNSLRAEDTAVYYCARGRYNWNPRALGIWGQGTMVTVSS
